Drawing on patent US20090118161A1 (BAYLOR COLLEGE OF MEDICINE, published 2009), this text covers binding for one molecule.

By UniProt entry, the sequences of proteins in these tests, tags left out. Residues count along the entry.
UniProt P04275, residues 1238-1471: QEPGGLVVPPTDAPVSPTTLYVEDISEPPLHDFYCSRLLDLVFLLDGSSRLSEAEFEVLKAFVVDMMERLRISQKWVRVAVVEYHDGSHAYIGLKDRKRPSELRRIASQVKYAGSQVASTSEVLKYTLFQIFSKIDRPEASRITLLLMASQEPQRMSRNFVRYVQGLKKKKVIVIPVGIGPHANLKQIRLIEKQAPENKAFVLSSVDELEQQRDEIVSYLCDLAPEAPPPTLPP

No constants are given. Whether binding was seen depends on the method and setting. Some entries that bind do so weakly or less than the wild type.

This experiment has as its target recombinant VWF-A1 domain polypeptide (amino acids Q1238-P1471) (human) (UniProt P04275). Kind of experiment: assay not described.

As to ILQRVREIRY [peptide B9 (…), derived from the A2 domain], the binding entry was “binds”.
